Inconclusive results, whose numbers are uncertain, are shown with a selection of clear calls. A potency beside an inconclusive call is a rough fit, not a confirmed value. Calls of active or inactive are those of the source. The call rests on the fitted dose curve; in most records, active means well fitted cell-killing curve with a large enough effect; inconclusive means small, poorly fitted or top-dose-only effect, or effect the other way; inactive means no such curve, though single readings can be large or run the other way.
Each molecule was assayed on SW626 (assay: Confirmatory qHTS for gynecologic anti-cancer compounds from libraries of approved drugs and bioactive compounds). Conditions: gynecologic cancer cell panel viability, ATPlite luminescence, 48 h; series mostly up to 57.6 µM.
In short: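 1,000 cells/well; 16 h pre-incubation 37 C, 5% CO2; pin-transferred cpd in DMSO, 11 conc (1:3), 57.5 uM–0.977 nM; 48 h; ATPlite, 15 min RT; luminescence → IC50.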
In the case of CCN1C[C@H](C)n2c(c(O)c3c(=O)n(Cc4ccc(F)c(Cl)c4)nc(C(=O)NC)c32)C1=O, the Potency is reported as “inactive”. In the case of Cc1ccccc1C(OCCN(C)C)c1ccccc1 (configuration not stated), the Potency is reported as inconclusive: 30.6 µM [cytotoxic, partial curve, poor fit]. For Cc1nc2ccc(CN(C)c3ccc(C(=O)NC(CCC(=O)O)C(=O)O)s3)cc2c(=O)[nH]1 (configuration not stated), the Potency was “inactive”. COc1cc(Nc2ncc3c(n2)-c2ccc(Cl)cc2C(c2c(F)cccc2OC)=NC3)ccc1C(=O)O was tested, and the Potency was inconclusive: 13.7 µM [cytotoxic, partial curve]. In the case of Cn1cnc2c(F)c(Nc3ccc(Br)cc3F)c(C(=O)NOCCO)cc21, the Potency is reported as inconclusive: 0.0217 µM [cytotoxic, full curve]. CNC(=O)c1nn(C)c2c1C(C)(C)Cc1cnc(Nc3ccc(N4CCN(C)CC4)cc3)nc1-2 was tested, and the Potency was inconclusive: 24.3 µM [rising, partial curve, poor fit]. COc1ccc2c(c1)c(CC(=O)O)c(C)n2C(=O)c1ccc(Cl)cc1 was tested, and the Potency was “inactive”. For COc1cc(N2CCC(N3CCN(C)CC3)CC2)ccc1Nc1ncc(Cl)c(Nc2ccccc2S(=O)(=O)C(C)C)n1, the Potency was active: 21.7 µM. With CC[C@]1(O)C[C@H]2CN(CCc3c([nH]c4ccccc34)[C@@](C(=O)OC)(c3cc4c(cc3OC)N(C=O)[C@H]3[C@@](O)(C(=O)OC)[C@H](OC(C)=O)[C@]5(CC)C=CCN6CC[C@]43[C@@H]65)C2)C1 the Potency was “inactive”. For COc1cccc2cc(-c3nc(C4CCC(C(=O)O)CC4)n4ncnc(N)c34)[nH]c12 (configuration not stated), the Potency was inconclusive: 7.69 µM [cytotoxic, partial curve]. For C#C[C@]1(O)CC[C@H]2[C@@H]3CCC4=CC(=O)CC[C@@H]4[C@H]3CC[C@@]21CC, the Potency was inconclusive: 8.63 µM [rising, partial curve]. For CN(C)c1ccc(-c2nc3ncc(Cl)c(N4CCN(CC(=O)Nc5nccs5)CC4)c3[nH]2)cc1, the Potency was “inactive”. In the case of CCCC(Nc1nc(-c2ccc(NC(=O)NCC)c(OC)c2)ncc1C)c1cccnc1 (configuration not stated), the Potency is reported as inconclusive: 19.3 µM [cytotoxic, partial curve]. Cc1ccc(-n2[nH]c(C)c(N=Nc3cccc(-c4cccc(C(=O)O)c4)c3O)c2=O)cc1C was tested, and the Potency was inconclusive: 38.5 µM [cytotoxic, single point]. With C[C@@]1(C(=O)Nc2ccc(F)nc2)CCCN1c1nc(Nc2cc(C3CC3)[nH]n2)c2cccn2n1 the Potency was “inactive”. For CC(=O)O[C@H]1C(=O)[C@@]2(C)[C@H]([C@H](OC(=O)c3ccccc3)[C@]3(O)C[C@H](OC(=O)[C@H](O)[C@@H](NC(=O)c4ccccc4)c4ccccc4)C(C)=C1C3(C)C)[C@]1(OC(C)=O)CO[C@@H]1C[C@@H]2O, the activity change, negative = viability loss was inactive: -9.14% [at 10.7 µM]. In the case of COc1cc2c(Nc3ccc(NC(=O)c4ccccc4)cc3)ncnc2cc1OCCCN1CCOCC1, the Potency is reported as inconclusive: 24.3 µM [cytotoxic, partial curve]. For CCc1c2c(nc3ccc(OC(=O)N4CCC(N5CCCCC5)CC4)cc13)-c1cc3c(c(=O)n1C2)COC(=O)[C@]3(O)CC, the Potency was inconclusive: 13.7 µM [cytotoxic, partial curve]. Cc1ccc2nc(N)[nH]c(=O)c2c1Sc1ccncc1 was tested, and the Potency was inconclusive: 8.63 µM [cytotoxic, partial curve, poor fit]. For NS(=O)(=O)OC[C@@H]1C[C@@H](n2ccc3c(N[C@H]4CCc5ccccc54)ncnc32)C[C@@H]1O, the Potency was inconclusive: 13.7 µM [cytotoxic, partial curve]. For Fc1cc(-c2cccc3ncc(-c4cnn(C5CCNCC5)c4)nc23)cc(F)c1CN1CCOCC1, the Potency was active: 27.3 µM. With CC(C)CC(=O)Nc1n[nH]c2c1CN(C(=O)C1CCN(C)CC1)C2(C)C the Potency was “inactive”. With CC(=O)c1cnc2ccc(-c3cc(Cl)c(O)c(Cl)c3)nc2c1NC1CCC(CN(C)C)CC1 (configuration not stated) the Potency was inconclusive: 0.28 µM [cytotoxic, single point]. With CCOC(=O)C1=C(C)NC2=C(C(=O)CC(C)(C)C2)C1c1ccc(-c2ccccc2)cc1 (configuration not stated) the Potency was “inactive”. Cc1cc(Nc2nc(N[C@@H](C)c3ncc(F)cn3)ncc2Cl)n[nH]1 was tested, and the Potency was inconclusive: 6.11 µM [cytotoxic, full curve, poor fit]. In the case of O=C(NOCC1CC1)c1ccc(F)c(F)c1Nc1ccc(I)cc1Cl, the Potency is reported as inconclusive: 1.72 µM [cytotoxic, partial curve]. CCS(=O)(=O)N1CCN(c2ccc(Nc3ncc(C(N)=O)c(NC4CC4)n3)cc2)CC1 was tested, and the Potency was inconclusive: 10.9 µM [cytotoxic, full curve]. CCC1=CC2CN(C1)Cc1c([nH]c3ccccc13)[C@@](C(=O)OC)(c1cc3c(cc1OC)N(C)[C@H]1[C@@](O)(C(=O)OC)[C@H](OC(C)=O)[C@]4(CC)C=CCN5CC[C@]31[C@@H]54)C2 (some centres not stated) was tested, and the Potency was inconclusive: 10.6 µM [cytotoxic, partial curve, poor fit]. For COc1cc2c(Oc3ccc(-c4cnc(Nc5ccc(F)cc5)n(C)c4=O)cc3F)ccnc2cc1OCCCN1CCOCC1, the Potency was inconclusive: 21.7 µM [cytotoxic, partial curve]. With Cc1cnc(CNC(=O)c2c(=O)c3ccc(N4CCCN(C)CC4)nc3n3c2sc2ccccc23)cn1 the activity change, negative = viability loss was inactive: -6.28% [at 10.7 µM]. For C[C@]12CCC(=O)C=C1[C@@H]1C[C@@H]1[C@H]1[C@@H]3[C@@H]4C[C@@H]4[C@@]4(CCC(=O)O4)[C@@]3(C)CC[C@@H]12, the Potency was “inactive”. For Cc1cc(Nc2cc(N3CCN(C)CC3)nc(/C=C/c3ccccc3)n2)n[nH]1, the Potency was active: 21.7 µM.
Further: nearly all actives have a fitted effect of over 55% in size.
On the % scale 0 is the no-effect control and ±100 the full control effect; potency means the concentration at half of the fitted maximal effect.
